Consider one molecule from patent US20090162869A1 (RIKEN, published 2009).

Amino acid sequences for entries named in this document (tags omitted). Residues count along the entry.
UniProt P70206, residues 28-1894: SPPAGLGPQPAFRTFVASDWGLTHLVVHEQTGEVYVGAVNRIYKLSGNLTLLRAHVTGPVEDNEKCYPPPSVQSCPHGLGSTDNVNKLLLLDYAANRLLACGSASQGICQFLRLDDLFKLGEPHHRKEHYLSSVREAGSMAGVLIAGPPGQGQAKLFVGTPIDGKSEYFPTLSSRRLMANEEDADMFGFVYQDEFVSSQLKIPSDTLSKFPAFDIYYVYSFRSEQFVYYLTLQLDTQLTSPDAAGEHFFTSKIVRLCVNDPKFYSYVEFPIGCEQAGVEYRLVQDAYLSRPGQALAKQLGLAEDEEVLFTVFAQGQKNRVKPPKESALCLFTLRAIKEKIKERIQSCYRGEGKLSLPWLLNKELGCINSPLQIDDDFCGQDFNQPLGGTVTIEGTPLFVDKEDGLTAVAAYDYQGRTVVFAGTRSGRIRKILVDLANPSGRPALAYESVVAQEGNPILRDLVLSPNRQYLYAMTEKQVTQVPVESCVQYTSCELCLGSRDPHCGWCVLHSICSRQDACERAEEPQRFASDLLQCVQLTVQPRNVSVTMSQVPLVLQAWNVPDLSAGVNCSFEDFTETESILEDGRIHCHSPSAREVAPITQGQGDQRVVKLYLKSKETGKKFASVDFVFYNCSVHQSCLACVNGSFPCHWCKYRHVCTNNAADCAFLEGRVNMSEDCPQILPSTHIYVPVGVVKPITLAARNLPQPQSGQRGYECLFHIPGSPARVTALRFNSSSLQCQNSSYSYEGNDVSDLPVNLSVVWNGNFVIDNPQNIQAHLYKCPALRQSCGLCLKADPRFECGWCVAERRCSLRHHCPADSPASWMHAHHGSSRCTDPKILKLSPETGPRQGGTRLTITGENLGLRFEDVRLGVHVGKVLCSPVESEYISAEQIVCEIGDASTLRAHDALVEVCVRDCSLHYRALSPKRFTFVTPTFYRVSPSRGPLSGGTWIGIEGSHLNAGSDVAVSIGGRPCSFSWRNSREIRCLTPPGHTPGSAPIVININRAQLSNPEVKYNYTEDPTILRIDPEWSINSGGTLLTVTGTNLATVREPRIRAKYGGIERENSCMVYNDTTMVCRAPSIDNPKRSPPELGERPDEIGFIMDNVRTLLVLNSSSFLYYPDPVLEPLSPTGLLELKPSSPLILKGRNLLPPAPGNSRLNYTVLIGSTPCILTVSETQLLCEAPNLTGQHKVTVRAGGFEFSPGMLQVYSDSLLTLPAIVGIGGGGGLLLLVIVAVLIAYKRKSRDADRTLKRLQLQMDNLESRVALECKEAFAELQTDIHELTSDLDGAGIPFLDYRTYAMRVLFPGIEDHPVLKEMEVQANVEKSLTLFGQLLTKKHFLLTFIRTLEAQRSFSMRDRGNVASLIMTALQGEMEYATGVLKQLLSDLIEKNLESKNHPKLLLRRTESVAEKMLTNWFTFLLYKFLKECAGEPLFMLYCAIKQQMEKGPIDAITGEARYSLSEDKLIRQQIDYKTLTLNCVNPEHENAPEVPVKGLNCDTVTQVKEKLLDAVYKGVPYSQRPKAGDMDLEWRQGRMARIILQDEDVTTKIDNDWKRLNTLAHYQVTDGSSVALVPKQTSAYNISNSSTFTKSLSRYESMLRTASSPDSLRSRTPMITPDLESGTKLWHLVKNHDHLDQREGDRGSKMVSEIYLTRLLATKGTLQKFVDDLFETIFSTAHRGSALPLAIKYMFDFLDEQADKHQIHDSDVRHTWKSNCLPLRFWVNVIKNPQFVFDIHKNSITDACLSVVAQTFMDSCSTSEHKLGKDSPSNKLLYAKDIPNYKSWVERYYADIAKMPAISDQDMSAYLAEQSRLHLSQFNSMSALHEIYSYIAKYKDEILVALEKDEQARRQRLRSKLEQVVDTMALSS

Results are given in words; binding and its absence hold for the method and conditions named. In cells and extracts the contact can be indirect. Some results given as binding are weak or reduced against the parent protein; the word gives no strength.

The assay addresses Plexin-A1, endogenous in mouse bone marrow cell-derived PDC (mouse) (UniProt P70206). The assay is described as follows: restatement of the co-immunoprecipitation results of the earlier examples.

B1: membrane molecule (A) of the present invention (PDC-TREM), mouse, full length (receptor)
chain: QNPELLRTQEGETVSVTCWYDSLYHSSEKIWCKQIDNLCYPFVSKSAEKPRFLIQQSSRFNFFTVTMTKLKMSDSGIYHCGIVANNTSVYLRNIHLVVSKGSSVVSTPDIIPATRLTKLPTLITTKHSPSDTTTTRSLPQPTTVVSSPDPRVIIINGTDADRGFVSSVTIPVVCGLLSKTLVFTVLFIVTQKSFGRQAMKAHNSNS
notes: also called the present membrane molecule
For B1, the binding entry was “binds”.
